Results as given in US20220265798A1.
These are yes or no findings as the source states them, for the method shown. In cells and extracts the contact can be indirect. Some binding calls cover weakened binding; strength is not graded here.

Protein sequences, listed by entry. Tags and fused reporters are not part of them. Residues count along the entry.
UniProt Q62432, residues 2-467: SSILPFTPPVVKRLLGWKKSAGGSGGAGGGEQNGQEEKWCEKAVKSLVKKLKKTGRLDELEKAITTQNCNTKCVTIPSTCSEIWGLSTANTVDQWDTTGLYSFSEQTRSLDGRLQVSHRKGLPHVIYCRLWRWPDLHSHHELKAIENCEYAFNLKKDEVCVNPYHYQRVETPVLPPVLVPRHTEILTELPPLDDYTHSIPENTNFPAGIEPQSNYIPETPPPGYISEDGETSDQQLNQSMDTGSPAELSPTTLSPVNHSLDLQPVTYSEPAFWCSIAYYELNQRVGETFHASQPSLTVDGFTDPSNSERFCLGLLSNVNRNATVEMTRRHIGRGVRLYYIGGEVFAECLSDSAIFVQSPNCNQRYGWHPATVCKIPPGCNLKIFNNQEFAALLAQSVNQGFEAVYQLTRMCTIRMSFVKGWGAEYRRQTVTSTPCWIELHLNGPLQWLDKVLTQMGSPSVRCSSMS

Tests used:
[1] = biological target: T1, p63 (mouse) (UniProt O88898); test: co-immunoprecipitation (FIG. 7D legend)
T1 sequence (looked up): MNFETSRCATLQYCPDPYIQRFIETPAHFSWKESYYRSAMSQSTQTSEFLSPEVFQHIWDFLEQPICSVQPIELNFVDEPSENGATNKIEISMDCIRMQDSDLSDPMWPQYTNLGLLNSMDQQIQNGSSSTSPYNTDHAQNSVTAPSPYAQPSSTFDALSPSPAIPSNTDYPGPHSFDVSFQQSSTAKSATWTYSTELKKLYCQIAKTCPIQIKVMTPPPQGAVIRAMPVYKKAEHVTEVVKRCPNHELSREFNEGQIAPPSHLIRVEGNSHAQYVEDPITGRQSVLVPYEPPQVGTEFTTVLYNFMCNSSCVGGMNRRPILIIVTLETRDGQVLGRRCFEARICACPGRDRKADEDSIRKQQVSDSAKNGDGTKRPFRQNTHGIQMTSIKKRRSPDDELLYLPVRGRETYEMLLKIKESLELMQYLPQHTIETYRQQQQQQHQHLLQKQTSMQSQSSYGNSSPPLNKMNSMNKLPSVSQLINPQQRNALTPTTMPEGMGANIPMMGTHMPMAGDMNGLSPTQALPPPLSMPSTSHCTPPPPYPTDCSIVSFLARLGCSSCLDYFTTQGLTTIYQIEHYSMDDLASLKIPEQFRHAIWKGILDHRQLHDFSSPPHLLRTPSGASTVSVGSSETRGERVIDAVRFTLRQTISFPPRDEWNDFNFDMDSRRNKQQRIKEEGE

[2] = biological target: T1, p63 (mouse); test: co-immunoprecipitation from PPT cell extracts, western blot

**Q.** What does the source list for Smad2 (from UniProt Q62432 2-467)?
**A.** binding [1]: binds; binding [2]: binds
